{
  "source": "patent US20240307575A1",
  "about": "“METHODS FOR […] MATTER” (priority 2021, published 2024)",
  "assay": "Example 5: change in humidity of cannabis plant matter after disinfection",
  "details": "H2O2. Two 10 minute pulses, with UV Irradiation",
  "data": [
    {"smiles": "OO", "note": "[hydrogen peroxide]", "values": [
      {"measurement": "Change in Humidity", "setting": "Batch 4, 1 Hz for 10 seconds every 30 seconds", "result": "−2.25", "unit": "percent by weight"},
      {"measurement": "Change in Humidity", "setting": "Batch 5, 1 Hz for 5 seconds every 10 seconds", "result": "−2.36", "unit": "percent by weight"}
    ]}
  ]
}
